Laboratory results: PubChem BioAssay AID652243 (Drosophila RNAi Screening Center, 2013)

Test: 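Knock-downs that decrease or increase androgen receptor reporter signal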 (primary screen)
Cells: Drosophila S2R+ cells
Reagents: long dsRNA against Drosophila genes
Timing: 72 h (48 h, then 24 h hormone)
Challenge: synthetic androgen R1881 at 10 nM for 24 h
Read-out: 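Firefly light from an androgen-responsive reporter and Renilla control light per well, raw and unnormalised, for each of two replicates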
Scale: firefly reporter light: higher = more light from androgen-responsive reporter; Renilla control light: higher = more constitutive control signal (cell number, transfection)
Active means: 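Hit when the log firefly-to-Renilla ratio dropped or increased by a fixed fold versus the mean of GFP or LacZ controls across duplicate plates; lowering cut given as 1.5 and as 3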
Meaning of the calls: active = hit: reporter lowered or raised; inactive = no hit
The deposit covers about 24,000 reagents; shown is an unselected part of those that have a named target and a result. In the full data, 246 (1%) were called active. 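Plates not normalised; calls are printed but the firefly/Renilla ratio behind them is not deposited; fold cut for lowering reported inconsistently.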 Raw values are not corrected between plates. Reagents against one gene are numbered here. Reagent sequences are not shown. Not given: the amount of reagent.

| target | reagent | firefly reporter light, replicate 1 | firefly reporter light, replicate 2 | Renilla control light, replicate 1 | Renilla control light, replicate 2 | call |
| --- | --- | --- | --- | --- | --- | --- |
| lectin-33A | 1 | 2.51e5 | 3.39e5 | 1.96e6 | 1.89e6 | inactive |
| lectin-33A | 2 | 8.38e5 | 7.98e5 | 2.18e6 | 1.55e6 | inactive |
| Cpr65Ec | 1 | 93324 | 1.94e5 | 1.50e6 | 1.56e6 | inactive |
| Cpr65Ec | 2 | 1.17e6 | 1.23e6 | 1.06e6 | 1.00e6 | inactive |
| mRpL14 | 1 | 1.52e5 | 1.61e5 | 2.37e6 | 2.65e6 | inactive |
| mRpL14 | 2 | 4.54e5 | 3.78e5 | 3.34e5 | 4.02e5 | inactive |
| CG4455 | 1 | 6.29e5 | 7.69e5 | 1.63e6 | 1.78e6 | inactive |
| CG4455 | 2 | 7.58e5 | 7.42e5 | 1.85e6 | 2.45e6 | inactive |
| CG33462 | 1 | 3.78e5 | 1.13e6 | 1.36e6 | 2.60e6 | inactive |
| chico | 1 | 6.30e5 | 5.47e5 | 1.38e6 | 1.22e6 | inactive |
| N | 1 | 2.96e5 | 2.17e5 | 3.69e6 | 2.14e6 | inactive |
| N | 2 | 4.25e5 | 5.21e5 | 1.57e6 | 1.97e6 | inactive |
| noi | 1 | 28821 | 18959 | 2.49e5 | 2.17e5 | inactive |
| noi | 2 | 3.55e5 | 2.28e5 | 7.99e5 | 6.87e5 | inactive |
| CG10286 | 1 | 58932 | 23098 | 2.48e5 | 2.70e5 | inactive |
| CG42826 | 1 | 1.94e5 | 1.26e5 | 1.78e6 | 1.66e6 | inactive |
| ClC-c | 1 | 23722 | 6649 | 3.08e5 | 1.46e5 | inactive |
| B-H2 | 1 | 6.64e5 | 7.39e5 | 2.01e6 | 1.96e6 | inactive |
| B-H2 | 2 | 4.41e5 | 5.61e5 | 7.19e5 | 7.11e5 | inactive |
| BBS8 | 1 | 34967 | 34275 | 3.07e5 | 4.03e5 | inactive |
| BBS8 | 2 | 6.46e5 | 4.70e5 | 7.89e5 | 9.33e5 | inactive |
| Duox | 1 | 1.86e5 | 2.52e5 | 5.12e5 | 5.60e5 | inactive |
| asRNA:Eig63F-2 | 1 | 5.24e5 | 2.85e5 | 1.62e6 | 8.45e5 | inactive |
| Hex-C | 1 | 68925 | 55309 | 1.05e6 | 1.05e6 | inactive |
| Hex-C | 2 | 3.42e5 | 4.84e5 | 3.49e5 | 3.14e5 | inactive |

Only “Renilla control light, replicate 2”, for 5 of the entries above:
mRpL14 #2	4.02e5
CG4455 #1	1.78e6
CG4455 #2	2.45e6
CG33462	2.60e6
chico	1.22e6

Next reagents follow:
| target | reagent | firefly reporter light, replicate 1 | firefly reporter light, replicate 2 | Renilla control light, replicate 1 | Renilla control light, replicate 2 | call |
| --- | --- | --- | --- | --- | --- | --- |
| CG14960 | 1 | 60116 | 54990 | 6.75e5 | 5.63e5 | inactive |
| CG33268 | 1 | 3.12e5 | 3.18e5 | 2.37e6 | 2.10e6 | inactive |
| Hex-A | 1 | 1.87e5 | 1.85e5 | 1.85e6 | 1.81e6 | inactive |
| Hex-A | 2 | 6.92e5 | 3.26e5 | 5.44e5 | 4.59e5 | inactive |
| Hex-A | 3 | – | – | – | – | inactive |
| CG34171 | 1 | 4.86e5 | 5.30e5 | 1.79e6 | 1.68e6 | inactive |
| CG6733 | 1 | 1.49e5 | 2.06e5 | 2.69e6 | 2.86e6 | inactive |
| wnd | 1 | – | – | – | – | inactive |
| wnd | 2 | 41594 | 34868 | 1.91e5 | 1.82e5 | active |
| wnd | 3 | 1.01e6 | 1.05e6 | 2.60e6 | 1.91e6 | inactive |
| wnd | 4 | – | – | – | – | inactive |
| Kal1 | 1 | 43184 | 1.11e5 | 5.07e5 | 6.13e5 | inactive |
| Octalpha2R | 1 | 3.03e5 | 3.65e5 | 5.22e5 | 6.22e5 | inactive |
| Octalpha2R | 2 | 1.76e5 | 1.59e5 | 1.75e6 | 1.75e6 | inactive |
| Ubc6 | 1 | 62182 | 65551 | 4.95e5 | 6.48e5 | inactive |
| Ubc6 | 2 | 1.02e6 | 1.13e6 | 8.29e5 | 7.18e5 | inactive |
| CG31926 | 1 | 83162 | 1.41e5 | 6.22e5 | 8.97e5 | inactive |
| CG31926 | 2 | 5.82e5 | 3.17e5 | 1.95e6 | 1.56e6 | inactive |
| CG5969 | 1 | 60040 | 59753 | 4.25e5 | 4.24e5 | inactive |
| CG5969 | 2 | 4.93e5 | 3.64e5 | 8.02e5 | 7.03e5 | inactive |
| CG11426 | 1 | 2.31e5 | 2.93e5 | 2.79e6 | 2.63e6 | inactive |
| CG11426 | 2 | 3.09e5 | 3.58e5 | 5.61e5 | 8.64e5 | inactive |
| CG11426 | 3 | – | – | – | – | inactive |
| CG12869 | 1 | 44214 | 83850 | 7.80e5 | 7.80e5 | inactive |
| CG11178 | 1 | 68890 | 66610 | 7.69e5 | 6.69e5 | inactive |
| Rgk2 | 1 | 1.10e5 | 1.66e5 | 1.09e6 | 2.37e6 | inactive |
| Rgk2 | 2 | 7.44e5 | 6.37e5 | 3.62e6 | 2.44e6 | inactive |
| Rgk2 | 3 | 6.16e5 | 6.70e5 | 7.16e5 | 8.05e5 | inactive |
| Rgk2 | 4 | 2.52e5 | 4.54e5 | 6.83e5 | 6.83e5 | inactive |
| Sol1 | 1 | 3.13e5 | 2.23e5 | 2.78e6 | 2.50e6 | inactive |
| Sol1 | 2 | 95464 | 93144 | 1.36e6 | 1.59e6 | inactive |
| Sol1 | 3 | 1.61e5 | 2.11e5 | 3.17e6 | 3.39e6 | inactive |
| Als2 | 1 | 35878 | 42032 | 3.47e5 | 3.39e5 | inactive |
